PubChem BioAssay AID1259405 – NCATS | 2018
Test: 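Knock-downs that lift recombinant protein yield in hamster ovary cells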 (primary screen). System: Chinese hamster CHO-K1 ovary cells with stable secreted eGFP expression. Knock-down reagent: single siRNA against mouse genes, 0.8 pmol siRNA per well (2 µl of 400 nM stock). Duration: 3 days. Measurement: 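Per-well intracellular GFP measured by laser scanning cytometry, plus viability from ATP luminescence, each relative to plate median of non-targeting control wells, in %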. Direction: GFP, % of control: higher = more GFP per well, higher productivity; viability (ATP), % of control: higher = more viable cells (more ATP). Hit rule: 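a knock-down is called active if GFP reaches 120% or more of non-targeting control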.
This is one part, drawn at random, of about 50,000 reagents tested. Of all reagents, about 4,000 (8%) got an active call. 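Mouse siRNA library applied to hamster cells; one well for each siRNA.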 Reagents against one gene are numbered here.

gene,siRNA no.,"GFP, % of control","viability (ATP), % of control",call
Krt31,1,81.1,85.3,inactive
Krt31,2,107,116,inactive
4932416K20Rik,1,105,94.5,inactive
4932416K20Rik,2,97.6,69.9,inactive
4932416K20Rik,3,77.9,83.4,inactive
Rps4x,1,19,13.9,inactive
Rps4x,2,51.3,24.9,inactive
Rps4x,3,47.8,31.6,inactive
Fkbp2,1,50.2,69.4,inactive
Fkbp2,2,58.3,72.2,inactive
Fkbp2,3,36.6,48.1,inactive
Ppid,1,118,131,inactive
Ppid,2,67.4,50.2,inactive
Ppid,3,86.8,73.1,inactive
Ankrd34c,1,206,64,active
Ankrd34c,2,81.3,68.3,inactive
Ankrd34c,3,123,92.7,active
Ap2s1,1,182,62.3,active
Ap2s1,2,70.9,64,inactive
Ap2s1,3,72,41.4,inactive
Fam168b,1,61.5,50.8,inactive
Fam168b,2,97.1,66.5,inactive
Fam168b,3,135,119,active
Cbr4,1,69.6,72.5,inactive
Cbr4,2,77.1,87.1,inactive
Cbr4,3,69.2,63.1,inactive
Sh3glb2,1,94.9,89.5,inactive
Sh3glb2,2,107,43,inactive
Sh3glb2,3,67.1,74.7,inactive
Atic,1,100,76.3,inactive
Atic,2,98.2,98.3,inactive
Atic,3,67.8,84.2,inactive
Tm2d1,1,69.2,64.4,inactive
Tm2d1,2,57.5,60,inactive
Tm2d1,3,121,86.6,active
Slc5a4a,1,128,100,active
Slc5a4a,2,41.6,37.8,inactive
Slc5a4a,3,77.6,89.6,inactive
Cradd,1,80.2,98.2,inactive
Cradd,2,61.9,58.4,inactive
Cradd,3,58.5,72.4,inactive
Rpl7,1,38.3,33.8,inactive
Rpl7,2,83.6,69.2,inactive
Rpl7,3,38.3,27.4,inactive
Cdk18,1,83.6,87.9,inactive
Cdk18,2,58.7,39,inactive
Cdk18,3,74.7,75.4,inactive
Gpsm3,1,33.7,71,inactive
Gpsm3,2,91.8,99,inactive
Gpsm3,3,76.9,55,inactive
Nek1,1,89.2,95.4,inactive
Gdpd1,1,109,79.5,inactive
Gdpd1,2,126,87.2,active
Gdpd1,3,71.9,53.3,inactive
Nap1l4,1,79.1,78.7,inactive
Nap1l4,2,111,66.8,inactive
Nap1l4,3,89,83.8,inactive
Glce,1,46.6,58.1,inactive
Glce,2,56.5,60.7,inactive
Glce,3,101,77.3,inactive
Il7r,1,86.4,77.6,inactive
Il7r,2,72.9,80.8,inactive
Rnf152,1,101,82.5,inactive
Rnf152,2,82.2,74.4,inactive
Rnf152,3,129,111,active
Tinag,1,113,67,inactive
Tinag,2,68.6,78.8,inactive
Tinag,3,65.4,53.4,inactive
Dbp,1,45.3,41.5,inactive
Dbp,2,43,41.6,inactive
Dbp,3,96.9,97.4,inactive
Acly,1,74.4,91.3,inactive
Acly,2,87.2,58.4,inactive
Acly,3,95,67.5,inactive
Sult2a8,1,78.9,81.4,inactive
Sult2a8,2,59,45.8,inactive
Sult2a8,3,44.8,81.7,inactive
Cpn1,1,82.7,82.3,inactive
Cpn1,2,67.3,78.4,inactive
Cpn1,3,95.2,66.3,inactive
Or7e176,1,72.2,66.5,inactive
Or7e176,2,15.2,24.4,inactive
Or7e176,3,103,113,inactive
Vmn1r177,1,85.9,51.1,inactive
Vmn1r177,2,94.4,60.1,inactive
Vmn1r177,3,50.5,124,inactive
Or7g17,1,45.9,59.4,inactive
Or7g17,2,73.3,56,inactive
Or7g17,3,73.5,72.7,inactive
Olfml3,1,53.3,34.2,inactive
Olfml3,2,78.3,92.6,inactive
Olfml3,3,111,90.6,inactive
Tdrp,1,50.7,86.5,inactive
Tdrp,2,82,59.6,inactive
Tdrp,3,79.2,100,inactive
Septin12,1,70.5,43.7,inactive
Septin12,2,35.3,57.4,inactive
Septin12,3,77.9,67,inactive
Pbx2,1,51.4,76.7,inactive
Pbx2,2,67,87.9,inactive
Pbx2,3,99.8,118,inactive
Aspscr1,1,65.3,64.6,inactive
Aspscr1,2,38.8,47.2,inactive
Aspscr1,3,90.3,86.4,inactive
Rundc3b,1,208,97.3,active
Rundc3b,2,77.3,87.6,inactive
Rundc3b,3,61.6,66.9,inactive
